Data from publication doi:10.1101/2019.12.31.891556.
No constants are given. Whether binding was seen depends on the method and setting. For some of these results: In cells and extracts the contact can be indirect. Some binding calls cover weakened binding; strength is not graded here. For some of these results: Sequences can lack the tags named with a protein. Each block holds one molecule with its values, some of them ahead of it.

Chains of the proteins cited; added tags and fusions are not shown.
UniProt Q8R4B8: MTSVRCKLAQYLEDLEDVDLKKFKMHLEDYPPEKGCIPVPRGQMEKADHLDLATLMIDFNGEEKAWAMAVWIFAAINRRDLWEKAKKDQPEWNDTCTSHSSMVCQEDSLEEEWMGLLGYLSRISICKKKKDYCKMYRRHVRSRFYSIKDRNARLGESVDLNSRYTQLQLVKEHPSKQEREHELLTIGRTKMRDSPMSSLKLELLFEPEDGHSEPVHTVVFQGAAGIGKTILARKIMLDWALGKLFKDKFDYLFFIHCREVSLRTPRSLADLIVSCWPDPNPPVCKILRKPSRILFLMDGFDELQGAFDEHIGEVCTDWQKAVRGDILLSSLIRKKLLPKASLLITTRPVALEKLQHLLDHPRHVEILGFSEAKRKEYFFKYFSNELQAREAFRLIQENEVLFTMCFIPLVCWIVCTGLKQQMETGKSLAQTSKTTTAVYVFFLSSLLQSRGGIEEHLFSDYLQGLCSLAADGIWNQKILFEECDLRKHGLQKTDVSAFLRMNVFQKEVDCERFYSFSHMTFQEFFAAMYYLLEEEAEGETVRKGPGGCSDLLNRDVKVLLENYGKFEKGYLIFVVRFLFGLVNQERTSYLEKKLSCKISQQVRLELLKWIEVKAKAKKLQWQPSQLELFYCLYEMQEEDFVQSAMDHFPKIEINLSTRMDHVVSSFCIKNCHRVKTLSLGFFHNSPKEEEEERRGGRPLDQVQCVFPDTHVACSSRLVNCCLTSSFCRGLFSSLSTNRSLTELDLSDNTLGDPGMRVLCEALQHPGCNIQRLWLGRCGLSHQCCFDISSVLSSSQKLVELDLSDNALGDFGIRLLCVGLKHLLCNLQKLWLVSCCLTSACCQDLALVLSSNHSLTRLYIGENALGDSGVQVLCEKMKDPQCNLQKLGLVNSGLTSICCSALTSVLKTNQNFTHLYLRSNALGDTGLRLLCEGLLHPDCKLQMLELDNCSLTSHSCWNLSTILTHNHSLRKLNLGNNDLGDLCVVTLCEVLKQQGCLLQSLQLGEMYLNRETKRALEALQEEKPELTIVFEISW
UniProt Q8CHK4: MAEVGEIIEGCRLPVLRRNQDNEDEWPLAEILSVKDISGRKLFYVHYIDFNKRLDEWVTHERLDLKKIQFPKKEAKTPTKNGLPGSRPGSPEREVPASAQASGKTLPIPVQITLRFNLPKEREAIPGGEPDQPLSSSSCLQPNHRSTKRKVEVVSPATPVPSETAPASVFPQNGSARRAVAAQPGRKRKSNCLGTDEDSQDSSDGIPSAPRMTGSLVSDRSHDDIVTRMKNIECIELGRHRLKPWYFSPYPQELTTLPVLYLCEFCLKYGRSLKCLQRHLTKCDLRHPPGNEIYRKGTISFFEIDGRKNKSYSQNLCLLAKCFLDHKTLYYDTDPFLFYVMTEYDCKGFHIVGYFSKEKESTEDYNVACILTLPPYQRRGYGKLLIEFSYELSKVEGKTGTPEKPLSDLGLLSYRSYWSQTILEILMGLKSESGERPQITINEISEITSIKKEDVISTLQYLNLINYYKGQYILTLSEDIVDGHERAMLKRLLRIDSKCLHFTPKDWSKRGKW

Columns and labels:
[1] = target: Recombinant murine NLRP3-GST (mouse) (UniProt Q8R4B8); experiment: pull-down
[2] = target: endogenous KAT5 (mouse (endogenous in peritoneal macrophages)) (UniProt Q8CHK4); experiment: co-IP
[3] = target: Flag-tagged KAT5 (mouse) (UniProt Q8CHK4); experiment: co-IP

binding [3]: binds
Molecule: Myc-tagged NLRP3 (from UniProt Q8R4B8 1-1033)

binding [3]: no binding
B1: Myc-tagged caspase-1 (enzyme, UniProt P29452 1-402)
chain: MADKILRAKRKQFINSVSIGTINGLLDELLEKRVLNQEEMDKIKLANITAMDKARDLCDHVSKKGPQASQIFITYICNEDCYLAGILELQSAPSAETFVATEDSKGGHPSSSETKEEQNKEDGTFPGLTGTLKFCPLEKAQKLWKENPSEIYPIMNTTTRTRLALIICNTEFQHLSPRVGAQVDLREMKLLLEDLGYTVKVKENLTALEMVKEVKEFAACPEHKTSDSTFLVFMSHGIQEGICGTTYSNEVSDILKVDTIFQMMNTLKCPSLKDKPKVIIIQACRGEKQGVVLLKDSVRDSEEDFLTDAIFEDDGIKKAHIEKDFIAFCSSTPDNVSWRHPVRGSLFIESLIKHMKEYAWSCDLEDIFRKVRFSFEQPEFRLQMPTADRVTLTKRFYLFPGH

Continued, molecule first:

Molecule: Recombinant murine KAT5-his (from UniProt Q8CHK4 1-513) (enzyme)
binding [1]: binds

Molecule: endogenous NLRP3 (from UniProt Q8R4B8 1-1033)
binding [2]: binds
